Laboratory results as given in paper PMC7228129, “Evaluation of Developmental Toxicity, Developmental Neurotoxicity, and Tissue Dose in Zebrafish Exposed to GenX and Other PFAS” (Environmental Health Perspectives, 2020).
Values joined by “and” are separate entries in the source; they are usually repeats but may differ in a detail not shown here. Equal entries are not always repeated.

Assay: Exposure media analysis (measured media concentration, UPLC-MSMS)
Settings: for Measured media dose: media at 6 dpf; for Dil Corrected Reported Conc. (µM) (measured media concentration): exposure media, replicate plates/samples
[1] = nominal Concentration 4.41 µM, Experiment GX8, Plates A, B, C
[2] = nominal Concentration 7.87 µM, Experiment GX8, Plates A, B, C
[3] = nominal Concentration 14 µM, Experiment GX8, Plates A, B, C
[4] = nominal Concentration 25.1 µM, Experiment GX8, Plates A, B, C
[5] = nominal Concentration 44.8 µM, Experiment GX8, Plates A, B, C
[6] = nominal Concentration 80 µM, Experiment GX8, Plates A, B, C

| SMILES | Measured media dose (nominal 25.1 μM, 0.4% DMSO) [mg/L] | Measured media dose (nominal 44.8 μM, 0.4% DMSO) [mg/L] | Measured media dose (nominal 80.0 μM, 0.4% DMSO) [mg/L] | Dil Corrected Reported Conc. (µM) (measured media concentration) (nominal concentration 4.41 µM) | Dil Corrected Reported Conc. (µM) (measured media concentration) (nominal concentration 7.87 µM) | Dil Corrected Reported Conc. (µM) (measured media concentration) (nominal concentration 14 µM) | Dil Corrected Reported Conc. (µM) (measured media concentration) (nominal concentration 25.1 µM) | Dil Corrected Reported Conc. (µM) (measured media concentration) (nominal concentration 44.8 µM) | Dil Corrected Reported Conc. (µM) (measured media concentration) (nominal concentration 80 µM) | Dil Corrected Reported Conc. (measured media concentration) [1] | Dil Corrected Reported Conc. (measured media concentration) [2] | Dil Corrected Reported Conc. (measured media concentration) [3] | Dil Corrected Reported Conc. (measured media concentration) [4] | Dil Corrected Reported Conc. (measured media concentration) [5] | Dil Corrected Reported Conc. (measured media concentration) [6] | also measured |
| --- | --- | --- | --- | --- | --- | --- | --- | --- | --- | --- | --- | --- | --- | --- | --- | --- |
| O=C(O)C(F)(F)C(F)OC(F)(F)C(F)(F)C(F)(F)OC(F)(F)F (stereo not drawn) [ADONA, 4,8-Dioxa-3H-perfluorononanoate] | 9.98 ± 1.77 | 17.04 ± 2.24 | 26.52 ± 5.98 | 5.644 µM and 5.085 µM and 5.911 µM | 8.763 µM and 8.507 µM and 11.15 µM | 16.52 µM and 14.46 µM and 19.41 µM | 21.07 µM and 22.64 µM and 31.16 µM | 37.42 µM and 40 µM and 50.39 µM | 68.74 µM and 46.88 µM and 83.26 µM |  |  |  |  |  |  |  |
| O=C(O)C(F)(OC(F)(F)C(F)(F)C(F)(F)F)C(F)(F)F (stereo not drawn) [GenX Free Acid in water] |  |  |  | 4.913 µM and 4.375 µM and 2.71 µM | 6.557 µM and 3.941 µM and 4.587 µM | 12.02 µM and 10.62 µM and 5.982 µM | 16.55 µM and 20.79 µM and 12.26 µM | 22.15 µM and 18.41 µM and 23.73 µM | 25.01 µM and 33.92 µM and 36.04 µM |  |  |  |  |  |  |  |
| O=C(O)C(F)(OC(F)(F)C(F)(F)C(F)(F)F)C(F)(F)F (stereo not drawn) [GenX Free Acid, Perfluoro-2-propoxypropanoic acid] |  |  |  |  |  |  |  |  |  |  |  |  |  |  |  | Parent compound in media (GenX Free Acid diluted in DI water (Study 2)): detectable levels; Parent compound in media at 6 dpf (GenX Free Acid diluted in DMSO (Study 1)): undetectable; Measured media dose (nominal 25.1 μM in DI water (Study 2)): 5.46 ± 1.15 mg/L; Measured media dose (nominal 44.8 μM in DI water (Study 2)): 7.06 ± 0.73 mg/L; Measured media dose (nominal 80.0 μM in DI water (Study 2)): 10.44 ± 1.57 mg/L |
| O=S(=O)(O)C(F)(F)C(F)(F)OC(F)(C(F)(F)F)C(F)(F)OC(F)=C(F)F (stereo not drawn) [PFESA1, Perfluoro-3,6-dioxa-4-methyl-7-octene-1-sulfonic acid] | 7.67 ± 1.46 | 14.11 ± 1.91 | 29.89 ± 2.87 | 2.137 µM and 2.313 µM | 4.849 µM and 4.203 µM and 3.876 µM | 9.072 µM and 9.424 µM and 8.255 µM | 15.37 µM and 14.54 µM and 21.85 µM | 35.83 µM and 25.77 µM and 33.68 µM | 75.32 µM and 67.14 µM and 59.54 µM |  |  |  |  |  |  |  |
| O=C(O)C(F)(F)C(F)(F)C(F)(F)C(F)(F)C(F)(F)F [PFHxA, Perfluorohexanoic acid] | 10.76 ± 0.98 | 18.22 ± 1.19 | 37.16 ± 7.53 | 10.19 µM |  |  |  |  |  | 7.754 µM and 9.198 µM | 12.15 µM and 9.896 µM and 11.07 µM | 20.49 µM and 18.89 µM and 23.11 µM | 37 µM and 29.89 µM and 35.88 µM | 60.42 µM and 52.69 µM and 60.97 µM | 115.1 µM and 90.77 µM and 149.2 µM |  |
| O=S(=O)(O)C(F)(F)C(F)(F)C(F)(F)C(F)(F)C(F)(F)C(F)(F)F [PFHxS, Perfluorohexanesulfonic acid] | 16.06 ± 1.97 | 28.04 ± 4.72 |  |  |  |  |  |  |  | 6.519 µM and 6.751 µM and 6.616 µM | 10.3 µM and 11.69 µM and 10.61 µM | 21.51 µM and 21.03 µM and 19.59 µM | 30.29 µM and 40.16 µM and 39.47 µM | 48.78 µM and 70.69 µM and 72.5 µM | 92.26 µM and 106.1 µM and 156.6 µM | Measured media dose (nominal 14.0 μM, 0.4% DMSO): 9.07 ± 0.36 mg/L |
| O=C(O)C(F)(F)C(F)(F)C(F)(F)C(F)(F)C(F)(F)C(F)(F)C(F)(F)F [PFOA, Perfluoro-n-octanoic acid] | 9.91 ± 0.33 | 19.0 ± 2.45 | 33.01 ± 8.41 |  |  |  |  |  |  | 5.494 µM and 5.552 µM and 5.442 µM | 8.48 µM and 8.499 µM and 14.28 µM | 15.17 µM and 13.73 µM | 23.83 µM and 24.98 µM and 23.03 µM | 48.62 µM and 37.78 µM and 51.53 µM | 83.35 µM and 53.2 µM and 102.5 µM |  |
| O=S(=O)(O)C(F)(F)C(F)(F)C(F)(F)C(F)(F)C(F)(F)C(F)(F)C(F)(F)C(F)(F)F [PFOS, Perfluorooctanesulfonic acid] |  |  |  |  |  |  |  |  |  |  |  |  |  |  |  | Measured media dose (nominal 1.0 μM, 0.4% DMSO): 0.16 ± 0.007 mg/L; Measured media dose (nominal 1.8 μM, 0.4% DMSO): 0.31 ± 0.038 mg/L; Measured media dose (nominal 3.1 μM, 0.4% DMSO): 0.99 ± 0.194 mg/L; Dil Corrected Reported Conc. (measured media concentration) (nominal concentration 0.173 µM PFOS, experiment GX8, plates A-C): 0.0464 µM and 0.05268 µM and 0.02921 µM; Dil Corrected Reported Conc. (measured media concentration) (nominal concentration 0.309 µM PFOS, experiment GX8, plates A-C): 0.09308 µM and 0.07726 µM and 0.07079 µM; Dil Corrected Reported Conc. (measured media concentration) (nominal concentration 0.552 µM PFOS, experiment GX8, plates A-C): 0.1364 µM and 0.1689 µM and 0.1358 µM; Dil Corrected Reported Conc. (measured media concentration) (nominal concentration 0.986 µM PFOS, experiment GX8, plates A-C): 0.3205 µM and 0.3364 µM and 0.3034 µM; Dil Corrected Reported Conc. (measured media concentration) (nominal concentration 1.76 µM PFOS, experiment GX8, plates A-C): 0.5456 µM and 0.7295 µM and 0.6025 µM; Dil Corrected Reported Conc. (measured media concentration) (nominal concentration 3.144 µM PFOS, experiment GX8, plates A-C): 2.522 µM and 1.628 µM and 1.794 µM |
